Results from paper PMC3320590.
No constants are given. Whether binding was seen depends on the method and setting. Binding seen in cells or lysates may run through a third protein. Some binding calls cover weakened binding; strength is not graded here.

Amino acid sequences for entries named in this document (tags omitted). Residues count along the entry.
UniProt Q8WPU1, residues 18-376: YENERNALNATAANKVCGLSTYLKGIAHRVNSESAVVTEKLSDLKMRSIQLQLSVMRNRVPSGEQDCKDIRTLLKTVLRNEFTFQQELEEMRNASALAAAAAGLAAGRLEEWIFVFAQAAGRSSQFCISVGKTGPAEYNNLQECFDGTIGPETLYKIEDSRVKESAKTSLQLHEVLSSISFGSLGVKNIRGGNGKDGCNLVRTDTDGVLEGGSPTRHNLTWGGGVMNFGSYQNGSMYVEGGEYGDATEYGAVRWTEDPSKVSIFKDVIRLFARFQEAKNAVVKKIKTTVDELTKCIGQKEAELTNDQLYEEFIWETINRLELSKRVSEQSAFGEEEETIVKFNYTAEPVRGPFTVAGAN
UniProt Q8WPU2, residues 18-338: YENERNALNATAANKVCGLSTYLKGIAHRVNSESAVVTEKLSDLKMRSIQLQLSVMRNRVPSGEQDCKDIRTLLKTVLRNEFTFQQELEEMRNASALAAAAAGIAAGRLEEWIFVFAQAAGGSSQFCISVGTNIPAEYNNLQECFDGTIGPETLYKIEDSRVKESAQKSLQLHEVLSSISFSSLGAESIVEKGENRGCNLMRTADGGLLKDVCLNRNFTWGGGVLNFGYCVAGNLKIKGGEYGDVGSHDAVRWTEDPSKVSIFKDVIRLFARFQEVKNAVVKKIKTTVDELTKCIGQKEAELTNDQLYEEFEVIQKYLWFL

Target: ESAG6 subunit of the T. brucei transferrin receptor (T. brucei (endogenous in bloodstream form trypanosomes)) (UniProt Q8WPU1)
Assay: pull-down

**Q.** How did the binding turn out when “ESAG7 subunit of the T. brucei transferrin receptor (from UniProt Q8WPU2 18-338)” was run?
**A.** binds
